Experimental data as given in patent publication US20170306303A1 (University of California, published 2017).

Biological target: p29 bCW505 ON-switch CAR part 2 with human ER alpha LBD w Y537F G521R
Experiment: cell-based or functional assay

B1: p26 bCW502 myc aCD19 ON-switch part 1 with 3x CoRNR peptide and 4-1BB (receptor)
chain: EQKLISEEDLDIQMTQTTSSLSASLGDRVTISCRASQDISKYLNWYQQKPDGTVKLLIYHTSRLHSGVPSRFSGSGSGTDYSLTISNLEQEDIATYFCQQGNTLPYTFGGGTKLEITGGGGSGGGGSGGGGSEVKLQESGPGLVAPSQSLSVTCTVSGVSLPDYGVSWIRQPPRKGLEWLGVIWGSETTYYNSALKSRLTIIKDNSKSQVFLKMNSLQTDDTAIYYCAKHYYYGGSYAMDYWGQGTSVTVSSTTTPAPRPPTPAPTIASQPLSLRPEACRPAAGGAVHTRGLDFACDIYIWAPLAGTCGVLLLSLVITLYCSLKRGRKKLLYIFKQPFMRPVQTTQEEDGCSCRFPEEEEGGCELSRGSGSGSTSDAFQLRQLILRGLQDDGGGSGGGSDAFQLRQLILRGLQDDGGGSGGGSDAFQLRQLILRGLQDDGS
- CD69 upregulation in Jurkat cells (flow cytometry, 24 hours of co-culture with K562 target cells); the EC50 is that of the dimerizer 4-hydroxytamoxifen: ~100 nM
